Among all 390,000 compounds or so, about 910 (0.23%) were called active. The inconclusive results got no clear call from the source; some entries with a clear call stand among them for comparison. Calls come from the whole dose curve; as a rule, active = well fitted inhibition curve with a large enough effect; inconclusive = small, poorly fitted or top-dose-only effect; inactive = no such curve, though single readings can be large or run the other way. Where the call is inconclusive, the potency comes from a doubtful curve fit.
target: Ubiquitin carboxyl-terminal hydrolase 1 (Homo sapiens) (UniProt O94782); assay: Inhibitors of USP1/UAF1: Primary Screen; settings: recombinant USP1/UAF1, Ub-Rhodamine cleavage fluorescence; activity change, negative = inhibition: at 57.1 µM (top of the series); note: nearly all actives have a fitted effect of over 60% in size
In short: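 High-throughput fluorogenic screen: 1nM USP1/UAF1 complex, Ub-Rho substrate 150nM final, 50mM HEPES pH 7.8 with 0.5mM EDTA, 0.1 mg/ml BSA, 1mM TCEP and 0.01% Tween-20.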
% is set by controls: 0 for no effect and ±100 for the full control effect; potency is the fitted concentration of half-maximal effect.

Amino acid sequences for entries named in this document (tags omitted). A change or cut given only in a name is not applied to a line headed by its entry.
UniProt O94782: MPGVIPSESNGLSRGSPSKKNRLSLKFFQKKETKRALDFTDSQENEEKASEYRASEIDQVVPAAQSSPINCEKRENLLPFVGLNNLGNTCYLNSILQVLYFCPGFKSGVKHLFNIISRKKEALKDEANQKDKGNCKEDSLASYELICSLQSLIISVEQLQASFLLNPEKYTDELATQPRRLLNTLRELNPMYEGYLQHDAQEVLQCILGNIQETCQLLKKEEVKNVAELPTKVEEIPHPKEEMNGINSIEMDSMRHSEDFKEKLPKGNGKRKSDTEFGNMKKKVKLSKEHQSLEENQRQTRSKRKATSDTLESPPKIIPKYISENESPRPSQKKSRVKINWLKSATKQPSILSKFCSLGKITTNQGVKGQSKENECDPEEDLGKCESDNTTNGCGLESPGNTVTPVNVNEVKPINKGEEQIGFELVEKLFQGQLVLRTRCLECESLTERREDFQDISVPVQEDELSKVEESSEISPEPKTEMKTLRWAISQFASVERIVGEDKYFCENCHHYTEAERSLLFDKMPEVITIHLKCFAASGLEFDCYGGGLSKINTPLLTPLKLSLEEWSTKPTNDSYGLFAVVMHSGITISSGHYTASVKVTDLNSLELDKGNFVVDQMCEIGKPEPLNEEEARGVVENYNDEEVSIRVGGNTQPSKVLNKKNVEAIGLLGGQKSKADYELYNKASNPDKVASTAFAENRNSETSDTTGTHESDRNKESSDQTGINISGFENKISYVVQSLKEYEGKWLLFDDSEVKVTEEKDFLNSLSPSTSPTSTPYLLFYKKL

| Structure (SMILES) | activity change, negative = inhibition | Potency |
| --- | --- | --- |
| C/C(=N\Nc1nc(C)c(C)s1)c1ccc([N+](=O)[O-])cc1 | inactive: -2.05% | – |
| O=C(Oc1ccccc1F)c1nc(SCc2ccccc2F)ncc1Cl | inactive: -0.452% | – |
| COc1ccccc1NC(=O)c1ccc(S(=O)(=O)N(C)C)cc1 | – | inconclusive: 4.47 µM [inhibitor, single point] |
| CCCCNC(=O)C(C#N)c1nc2ccccc2nc1N1CCN(c2ccccc2F)CC1 (stereo not given) | – | inconclusive: 39.8 µM [inhibitor, partial curve] |
| NS(=O)(=O)c1cccc(NC(=O)COC(=O)C2(c3cccc(F)c3)CCCC2)c1 | inactive: -1.83% | – |
| CN(C)c1cc(N/N=C/c2ccc(Cl)cc2)nc(N(C)C)n1 | – | inconclusive: 31.6 µM [inhibitor, partial curve] |
| O=C(OCCN1C(=O)c2cccc3c(N4CCOCC4)ccc(c23)C1=O)c1ccccc1Cl | – | inconclusive: 31.6 µM [inhibitor, partial curve, poor fit] |
| CCC(CO)Oc1cc(NCc2cccc(C)c2)c2ncn(C(C)C)c2c1 (stereo not given) | – | inconclusive: 56.2 µM [inhibitor, partial curve, poor fit] |
| Cc1ccc(NC(=O)Cn2c(=O)n(-c3ccccc3)c(=O)c3ccc(C(=O)NCc4ccc5c(c4)OCO5)cc32)cc1 | – | inconclusive: 17.8 µM [inhibitor, partial curve] |
| CC1CCN(c2ccc3c(c2)S(=O)(=O)c2cccc(C(=O)NCc4cccc(F)c4)c2C3=O)CC1 | – | inconclusive: 39.8 µM [inhibitor, single point] |
| Cc1nc(-c2noc(-c3ccccc3Cl)n2)c(C(F)(F)F)o1 | – | inconclusive: 56.2 µM [inhibitor, partial curve, poor fit] |
| COc1ccc(CCNC(=O)CN(C)S(=O)(=O)c2ccc3c(c2)CCC(=O)N3)cc1OC | – | inconclusive: 50.1 µM [inhibitor, partial curve, poor fit] |
| C#CCOCCOCCOCCNc1nc(N2CCN(C(=O)CCCCCCCCCCNC(=O)Cn3cc(CCCCCN)nn3)CC2)nc(N2CCN(C(=O)CCCCCCCCCCNC(=O)[C@H](CO)n3cc(CCCSC)nn3)CC2)n1 | – | inconclusive: 39.8 µM [inhibitor, partial curve, poor fit] |
| O=C(O)C1Nc2c(Cl)cc(Cl)cc2C2C=CCC12 (stereo not given) | – | inconclusive: 31.6 µM [inhibitor, partial curve] |
| O=C(Nc1ccc(C(F)(F)F)cc1)c1cc(S(=O)(=O)N2CCCc3ccccc32)ccc1F | – | inconclusive: 44.7 µM [inhibitor, partial curve, poor fit] |
| Cc1cccc(Cn2ccc(N)n2)c1 | – | inconclusive: 3.55 µM [inhibitor, single point] |
| O=C(OCC(=O)N1N=C(c2ccc(Cl)cc2)CC1c1ccco1)c1cncc(Br)c1 (stereo not given) | – | inconclusive: 50.1 µM [inhibitor, partial curve, poor fit] |
| Cc1ccc(S(=O)(=O)N2CCN(c3ccnc4cc(Cl)ccc34)CC2)cc1 | – | inconclusive: 44.7 µM [inhibitor, partial curve] |
| Cc1ccc(-n2ncc(C(=O)NCc3ccccn3)c2C2CCN(C(=O)OC(C)(C)C)CC2)cc1C | – | inconclusive: 1.78 µM [inhibitor, full curve] |
| COc1ccc(C(=O)Nc2ccc(S(=O)(=O)Nc3onc(C)c3C)cc2)c(OC)c1 | – | inconclusive: 20 µM [inhibitor, partial curve] |

| Structure (SMILES) | activity change, negative = inhibition | Potency |
| --- | --- | --- |
| COc1cc(OC)cc(C(=O)NN(CCC#N)C2=NS(=O)(=O)c3ccccc32)c1 | inconclusive: -6.74% [inhibitor] | – |
| Cc1ccc(NCc2cc3cc4c(cc3n(CC(=O)Nc3ccc(F)cc3F)c2=O)OCCO4)cc1 | – | inconclusive: 35.5 µM [inhibitor, partial curve, poor fit] |
| CC(C)(C)c1ccc(S(=O)(=O)c2cnc(SCC(=O)Nc3ccc4c(c3)OCCO4)[nH]c2=O)cc1 | – | inconclusive: 20 µM [inhibitor, partial curve, poor fit] |
| CCc1nc2ccccc2n1CCCCOc1cccc(C)c1 | inactive: -23.1% | – |
| Cc1ccc(C(=O)c2nccn2C)cc1C | – | inconclusive: 44.7 µM [inhibitor, single point] |
| COC(=O)c1cc(NC(=O)CN(c2ccccc2OC)S(=O)(=O)c2ccccc2)ccc1Cl | – | inconclusive: 39.8 µM [inhibitor, partial curve, poor fit] |
| Cc1cc(OCC(F)(F)C(F)(F)C(F)(F)C(F)(F)C(F)(F)C(F)F)nc(N)n1 | – | inconclusive: 31.6 µM [inhibitor, partial curve] |
| Cc1ccc(OCCNCc2ccccc2)c(C)c1 | – | inconclusive: 0.447 µM [inhibitor, full curve, poor fit] |
| CS(=O)(=O)c1nc([N+](=O)[O-])nn1CCCc1ccccc1 | – | inconclusive: 0.708 µM [inhibitor, full curve, poor fit] |
| O=c1cc(CSc2n[nH]c(-c3ccncc3)n2)nc2sccn12 | – | inconclusive: 50.1 µM [inhibitor, partial curve, poor fit] |
| Cc1ccc(Oc2ncccc2N)c2c1CCC2 | – | inconclusive: 39.8 µM [inhibitor, partial curve] |
| Cc1ccccc1-n1c(-c2ccc3ccccc3n2)n[nH]c1=S | – | inconclusive: 3.55 µM [inhibitor, full curve, poor fit] |
| COc1ccc(NC(=O)NS(=O)(=O)c2ccc(C)cc2)cn1 | – | inconclusive: 39.8 µM [inhibitor, partial curve, poor fit] |
| C[C@H](CO)N1C[C@H](C)[C@@H](CN(C)S(=O)(=O)c2ccc(F)cc2)Oc2c(NC(=O)NC3CCCCC3)cccc2C1=O | inactive: -16.7% | – |
| CN(C)C(=O)CCc1ccc2c3c([nH]c2c1)[C@]1(CCc2ccccc2)[C@@H](C(=O)N2CCCCC2)C[C@H](CC(=O)NCCC2=CCCCC2)C(=O)N1CC3 | – | inconclusive: 7.94 µM [inhibitor, partial curve] |
| O=C1NC(=Nc2ccc(O)cc2)S/C1=C\C=C\c1ccco1 | – | inconclusive: 2.24 µM [inhibitor, full curve, poor fit] |
| COc1cc(NS(=O)(=O)c2ccc(N)cc2)nc(OC)n1 | – | inconclusive: 89.1 µM [inhibitor, partial curve, poor fit] |
| Cc1ccc(NC2=C(Cl)C(=O)OC2NC(=O)c2ccccc2)cc1 (stereo not given) | inactive: -6.52% | – |
| O=C(Cc1ccccc1)c1nc2ccccc2s1 | – | inconclusive: 28.2 µM [inhibitor, single point] |
| Cc1cccc(S(=O)(=O)c2cn(C)c3cc(N4CCN(c5ccc(F)cc5)CC4)c(F)cc3c2=O)c1 | inactive: -13% | – |

| Structure (SMILES) | activity change, negative = inhibition | Potency |
| --- | --- | --- |
| O=C(NCCNC(=O)c1ccccc1)c1ccccc1 | inactive: -19.6% | – |
| CCc1nnc(SCC(=O)N(CC)c2ccccc2)c2cc3oc(C)cc3n12 | – | inconclusive: 0.447 µM [inhibitor, full curve, poor fit] |
| COc1cc(C(CCN2CCN(c3ccccc3)CC2)c2c(OC)cc(OC)c3c(C)cc(=O)oc23)cc(OC)c1OC (stereo not given) | – | inconclusive: 15.8 µM [inhibitor, partial curve] |
| Cc1ccc(C)c(Oc2nc3c(c(=O)n(C)c(=O)n3C)n2Cc2ccccc2)c1 | – | inconclusive: 6.31 µM [inhibitor, partial curve] |
| COc1cccc(C=CC(=O)C=CC=Cc2ccccc2)c1 | – | inconclusive: 35.5 µM [inhibitor, single point] |
| COCCSc1nnc(NC(=O)C2CC(=O)N(c3ccc(Cl)cc3)C2)s1 (stereo not given) | – | inconclusive: 31.6 µM [inhibitor, single point] |
| O=C(O)c1cccc(N/N=C/c2cn(-c3ccccc3)nc2-c2cccs2)c1 | inactive: -18.5% | – |
| Cc1ccc(S(=O)(=O)c2nnn3c2nc(NC2CCCCC2)c2sccc23)cc1 | – | inconclusive: 100 µM [inhibitor, partial curve, poor fit] |
| COc1cnc(-c2ccccn2)nc1Oc1c(C)cccc1C | inactive: -12% | – |
| Cn1cc(CNCc2cn(C)nc2-c2ccc(C3CCCCC3)cc2)cn1 | inactive: -25.7% | – |
| CC1CCN(C(=O)/C(=C\c2ccco2)NC(=O)c2ccccc2)CC1 | – | inconclusive: 8.91 µM [inhibitor, single point] |
| O=C(O)c1cccc2c1C(=O)c1ccc(-c3ccc(OC(F)(F)F)cc3)cc1S2(=O)=O | – | inconclusive: 20 µM [inhibitor, partial curve, poor fit] |
| CCC1=C(OC(=O)c2ccccc2)C(C)(C)C(c2ccccc2)OC1=O (stereo not given) | – | inconclusive: 50.1 µM [inhibitor, partial curve, poor fit] |
| COc1ccc(C(=O)C(CN2CCOCC2)c2ccccc2)cc1F (stereo not given) | inactive: -19.7% | – |
| COc1cc(C(=O)Nc2nc(-c3ccc(F)cc3)cs2)ccc1OCC(=O)N1CCOCC1 | – | inconclusive: 44.7 µM [inhibitor, partial curve] |
| COc1cc(-c2nc(C(=O)NC3CCCCC3)cc3c2[nH]c2ccccc23)cc(OC)c1OC | – | inconclusive: 5.01 µM [inhibitor, partial curve] |
| COc1ccc(C2C(C(=O)c3cccs3)=C(O)C(=O)N2c2nnc(C)s2)cc1OC (stereo not given) | – | active: 3.98 µM |
| O=C1NC[C@H](c2ccccc2)N(CCc2cc(C(F)(F)F)cc(C(F)(F)F)c2)C1=O | – | inconclusive: 8.91 µM [inhibitor, partial curve, poor fit] |
| COc1ccc(Cl)cc1Nc1nc(-c2sc(NC(=O)c3ccco3)nc2C)cs1 | inactive: -11.5% | – |
| COc1ccc(OC)c(-c2nn(-c3ccccc3)cc2C(=O)NC2(C)CCS(=O)(=O)C2)c1 (stereo not given) | – | inconclusive: 0.141 µM [inhibitor, full curve, poor fit] |

Reformatted tab-delimited: entries from further up
Structure (SMILES)	activity change, negative = inhibition	Potency
Cc1ccc(C(=O)c2nccn2C)cc1C	–	inconclusive: 44.7 µM [inhibitor, single point]
COC(=O)c1cc(NC(=O)CN(c2ccccc2OC)S(=O)(=O)c2ccccc2)ccc1Cl	–	inconclusive: 39.8 µM [inhibitor, partial curve, poor fit]
Cc1cc(OCC(F)(F)C(F)(F)C(F)(F)C(F)(F)C(F)(F)C(F)F)nc(N)n1	–	inconclusive: 31.6 µM [inhibitor, partial curve]
Cc1ccc(OCCNCc2ccccc2)c(C)c1	–	inconclusive: 0.447 µM [inhibitor, full curve, poor fit]
CS(=O)(=O)c1nc([N+](=O)[O-])nn1CCCc1ccccc1	–	inconclusive: 0.708 µM [inhibitor, full curve, poor fit]

Source: PubChem BioAssay AID743255 (National Center for Advancing Translational Sciences (NCATS), 2014)
